{"sequences": {"note": "Chains of the proteins cited; added tags and fusions are not shown.", "UniProt Q00987": "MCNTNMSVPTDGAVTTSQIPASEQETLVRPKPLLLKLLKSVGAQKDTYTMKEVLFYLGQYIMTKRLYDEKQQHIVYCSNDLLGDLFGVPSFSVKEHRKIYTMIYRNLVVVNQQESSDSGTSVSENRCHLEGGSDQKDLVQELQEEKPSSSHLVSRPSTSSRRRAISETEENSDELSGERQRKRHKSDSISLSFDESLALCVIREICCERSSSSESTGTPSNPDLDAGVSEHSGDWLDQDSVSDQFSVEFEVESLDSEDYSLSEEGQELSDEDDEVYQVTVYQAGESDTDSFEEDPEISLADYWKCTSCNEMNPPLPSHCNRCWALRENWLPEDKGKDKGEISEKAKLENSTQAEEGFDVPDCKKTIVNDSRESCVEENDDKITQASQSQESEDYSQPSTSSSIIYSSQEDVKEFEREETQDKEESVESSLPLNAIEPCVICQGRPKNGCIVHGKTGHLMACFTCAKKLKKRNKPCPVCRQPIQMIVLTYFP"}, "source": "paper PMC12196705", "target": "Mdm2 (human (endogenous in H1299)) (UniProt Q00987)", "test": "co-IP; endogenous Mdm2 immunoprecipitated from H1299 whole-cell lysate (1 mg protein, NP-40 lysis buffer, cells treated with MG132 for 4 h) with a primary antibody mix against Mdm2 or IgG control, overnight at 4 °C, Protein G agarose beads; immunoblot for HMCS1_HUMAN", "note": "These are yes or no findings as the source states them, for the method shown. In cells and extracts the contact can be indirect. Some results given as binding are weak or reduced against the parent protein; the word gives no strength."}
{"binder": "hydroxymethylglutaryl-CoA synthase (HMCS1_HUMAN) (protein, UniProt Q01581 1-520) MPGSLPLNAEACWPKDVGIVALEIYFPSQYVDQAELEKYDGVDAGKYTIGLGQAKMGFCTDREDINSLCMTVVQNLMERNNLSYDCIGRLEVGTETIIDKSKSVKTNLMQLFEESGNTDIEGIDTTNACYGGTAAVFNAVNWIESSSWDGRYALVVAGDIAVYATGNARPTGGVGAVALLIGPNAPLIFERGLRGTHMQHAYDFYKPDMLSEYPIVDGKLSIQCYLSALDRCYSVYCKKIHAQWQKEGNDKDFTLNDFGFMIFHSPYCKLVQKSLARMLLNDFLNDQNRDKNSIYSGLEAFGDVKLEDTYFDRDVEKAFMKASSELFSQKTKASLLVSNQNGNMYTSSVYGSLASVLAQYSPQQLAGKRIGVFSYGSGLAATLYSLKVTQDATPGSALDKITASLCDLKSRLDSRTGVAPDVFAENMKLREDTHHLVNYIPQGSIDSLFEGTWYLVRVDEKHRRTYARRPTPNDDTLDEGVGLVHSNIATEHIPSPAKKVPRLPATAAEPEAAVISNGEH", "values": [{"measurement": "binding", "result": "binds"}]}
